Measured values published in publication PMC9906020.
Results are given in words; binding and its absence hold for the method and conditions named. Binding seen in cells or lysates may run through a third protein. A yes stands for co-enrichment or nearness to the bait. Other partners may have been found. No binding means not detected with the bait.

Target: B9-Flag (P. berghei B9 tagged with a triple Flag epitope at the endogenous locus) (P. berghei)
Assay: affinity purification with mass spectrometry; B9-Flag salivary gland sporozoites lysed in 0.5% NP40, precleared, precipitated with Anti-FLAG M2 Affinity Gel 2 h at 4°C; PbGFP sporozoites as control; five independent biological replicates

B1: P52 of P. berghei sporozoites (protein, UniProt Q4Z4D2 24-449)
chain: NVTNPNTTLGHFEICKINIYSGDAEECVLENEFGKMFLFICDIDYNEMSKNIVLPSECAKKTYIDHVNPNGTSPEVNTYDIFPDLIGANESKFRDKFYFYGTPYSSKDIDFICLCFSEVKPDIKHIIKMSFKKMTKKIKGCDFGDNVPTKKDLTNGKALYENSSCHIYAYPGDVIGINCYKKDINNIYNNNLELSPNNCFHNVYYENDILLSSKNLIPNSRVIPDPSNDVKLSKMHSYMSYIILPDEINENVKISCSCKRNEYVGTMFLYVNTSKNILTYTGNNVEETAHLNDHYISIGDMWDMGLYENPEQIQSIISNHANKKYYEHMKIYKGNKMDPSDEDESNENAHNGNRANKDANYSEKMVDNRRQKNNSLNHTNYHGNYNENDNEINISTHDKYYEDHHLGSNRPLRKKRTFWQNLFGTS
In the case of B1, the binding is reported as “no binding”.
